Source: patent publication US20240060146A1, “CHEMICAL SUBSTANCE EVALUATION SYSTEM USING MULTICOLOR LIGHT-EMITTING CELLS” (TOHOKU UNIVERSITY, priority 2020, published 2024)
For at least one compound, name, drawing or mass did not settle the structure.

Test system: 2H4 cells
Assay: IL-2 Luc assay: evaluation of chemical substance in 2H4 cells
Assay type: cell-based
Description: 2H4 cells were established from Jurkat cells according to the method described in PTL 1. First, for the preparation of 2H4 cells, a plasmid having SLG introduced downstream of the IL-2 promoter, a plasmid having SLR introduced downstream of the G3PDH promoter, and a plasmid having SLO introduced downstream of the INF-γ promoter were prepared as internal standards. These plasmids contained a resistance gene for hygromycin B, puromycin, and neomycin downstream of SLG, SLR, and SLO, respectively. The conditions for drug selection after transfection of the host Jurkat cells were as follows: in the primary selection, the cells were cultured for 1 week in the presence of a drug. […]
The chemical substances listed in Table 1 were evaluated using 2H4 cells. […] After six hours from the treatment with PMA and ionomycin, Tripluc: Assay Reagent (manufactured by Toyobo Co., Ltd.) was added, and the amount of luminescence was measured with a Phelios microplate luminometer (manufactured by Atto Corporation). […] The amount of luminescence of SLG luciferase activity (IL2LA), SLR luciferase activity (GAPLA), and SLO luciferase activity (IFNLA) was measured, and IL-2LA and IFNLA were each normalized by GAPLA and determined to be nIL2LA and nIFNLA, respectively. […]

For CO[C@H]1C[C@@H]2CC[C@@H](C)[C@@](O)(O2)C(=O)C(=O)N2CCCC[C@H]2C(=O)O[C@H]([C@H](C)C[C@@H]2CC[C@@H](O)[C@H](OC)C2)CC(=O)[C@H](C)/C=C(\C)[C@@H](O)[C@@H](OC)C(=O)[C@H](C)C[C@H](C)/C=C/C=C/C=C/1C [Rapamycin (RPM), Rapamycin], the “determination by the IL-2 Luc assay alone (in words)” value was “determined to not have imnunosuppressive action”.
